{"source": "patent US20070191490A1", "about": "“Withacnistin compounds for treatment of cancer” (priority 2006, published 2007)", "key": {"[1]": {"test_system": "A549 cells", "assay": "Trypan blue exclusion assay (tumor cell death)", "assay_type": "cell-based, human", "conditions": "10 μM, 24 h", "procedure": "(§1) In vitro cellular proliferation and TUNEL assays. Subconfluent A549, MDA-MB-435, MDA-MB-453, MDAMB-468, v-Src transformed NIH 3T3 (v-Src/3T3), H-Ras transformed NIH 3T3 (H-Ras/3T3), and vector NIH 3T3 cells were grown in the presence of 10 μM cucurbitacin A, cucurbitacin I, withacnistin mixture, or DMSO vehicle control. After 24 hours, cells were harvested by trypsinization and counted via trypan blue exclusion assay to determine cellular viability. In all, 75,000-150,000 cells (depending on cell line) were then spun onto glass slides using a Cytospin 3 centrifuge (Thermo Shandon Inc., Pittsburgh, Pa., USA). After fixing cells to the slides with 4% paraformaldehyde in PBS, pH 7.5, for 1 h at room temperature, cells were labeled for apoptotic DNA strand breaks by TUNEL reaction using an in situ cell death detection kit (Roche Applied Science, Indianapolis, Ind., USA) according to the manufacturer's instructions, then mounted in Vectashield mounting medium (Vector Laboratories, Burlingame, Calif., USA) containing 4′,6-diamidino-2-phenylindole (DAPI) to counterstain DNA. Fluorescein-labeled DNA strand breaks (TUNEL-positive cells) were then visualized using a fluorescent microscope (Leica Microsystems Inc., Bannockburn, Ill., USA) and pictures taken with a digital camera (Diagnostic Instruments, Inc., Sterling Heights, Mich., USA). TUNELpositive nuclei were counted and compared to DAPI-stained nuclei to determine the percent induction of apoptosis by the different cucurbitacin compounds. Statistical significance between control and treated tumors were evaluated by using Student's t-test.\n(§2) The next objective was to determine whether the ability of the cucurbitacins and withacnistin to induce apoptosis is dependent on suppression of PJAK2 and/or P-STAT3 levels. To this end, A549 cells were treated with vehicle control, or cucurbitacins (10 μM), or the withacnistin mixture (10 μM) for 24 h, harvested the cells, and determined tumor cell death (trypan blue exclusion) and apoptosis (TUNEL) as described under Materials and methods."}, "[2]": {"test_system": "A549 cells", "assay": "TUNEL apoptosis assay, A549", "assay_type": "cell-based, human", "conditions": "10 μM, 24 h", "procedure": "as §1\nas §2, with “methods. […]” for “methods.”"}}, "note": "Some of these results come from one statement about several compounds together. At least one compound was matched to its structure with a doubt left. Some ranges recur; such a range may be that of the whole group of compounds.", "data": [{"smiles": "CC(=O)OC(C)(C)/C=C/C(=O)[C@](C)(O)[C@H]1[C@H](O)C[C@@]2(C)[C@@H]3CC=C4[C@H](C[C@H](O)C(=O)C4(C)C)[C@]3(C)C(=O)C[C@]12C", "note": "[Cuc B, cucurbitacin B]", "values": [{"measurement": "tumor cell death (trypan blue exclusion)", "setting": "[1]", "value": "15-33%"}, {"measurement": "apoptosis (TUNEL)", "setting": "[2]", "value": "10-19%"}]}, {"smiles": "CC(=O)OC(C)(C)/C=C/C(=O)[C@](C)(O)[C@H]1[C@H](O)C[C@@]2(C)[C@@H]3CC=C4[C@@H](C=C(O)C(=O)C4(C)C)[C@]3(C)C(=O)C[C@]12C", "note": "[Cuc E, cucurbitacin E]", "values": [{"measurement": "tumor cell death (trypan blue exclusion)", "setting": "[1]", "value": "15-33%"}, {"measurement": "apoptosis (TUNEL)", "setting": "[2]", "value": "10-19%"}]}, {"smiles": "CC(C)(O)/C=C/C(=O)[C@](C)(O)[C@H]1[C@H](O)C[C@@]2(C)[C@@H]3CC=C4[C@@H](C=C(O)C(=O)C4(C)C)[C@]3(C)C(=O)C[C@]12C", "note": "[Cuc I, cucurbitacin I]", "values": [{"measurement": "tumor cell death (trypan blue exclusion)", "setting": "[1]", "value": "15-33%"}, {"measurement": "apoptosis (TUNEL)", "setting": "[2]", "value": "10-19%"}]}]}
